# Test results as given in the supplement of paper PMC3334620.
# Whole data set: some 33,000 sequences, median “E-score (-0.5 to 0.5)” near -0.015, cut for the highest 2% near 0.3. The list shows a part of the results.
# Target: T1, Abf1 (UniProt P14164)
# T1 sequence: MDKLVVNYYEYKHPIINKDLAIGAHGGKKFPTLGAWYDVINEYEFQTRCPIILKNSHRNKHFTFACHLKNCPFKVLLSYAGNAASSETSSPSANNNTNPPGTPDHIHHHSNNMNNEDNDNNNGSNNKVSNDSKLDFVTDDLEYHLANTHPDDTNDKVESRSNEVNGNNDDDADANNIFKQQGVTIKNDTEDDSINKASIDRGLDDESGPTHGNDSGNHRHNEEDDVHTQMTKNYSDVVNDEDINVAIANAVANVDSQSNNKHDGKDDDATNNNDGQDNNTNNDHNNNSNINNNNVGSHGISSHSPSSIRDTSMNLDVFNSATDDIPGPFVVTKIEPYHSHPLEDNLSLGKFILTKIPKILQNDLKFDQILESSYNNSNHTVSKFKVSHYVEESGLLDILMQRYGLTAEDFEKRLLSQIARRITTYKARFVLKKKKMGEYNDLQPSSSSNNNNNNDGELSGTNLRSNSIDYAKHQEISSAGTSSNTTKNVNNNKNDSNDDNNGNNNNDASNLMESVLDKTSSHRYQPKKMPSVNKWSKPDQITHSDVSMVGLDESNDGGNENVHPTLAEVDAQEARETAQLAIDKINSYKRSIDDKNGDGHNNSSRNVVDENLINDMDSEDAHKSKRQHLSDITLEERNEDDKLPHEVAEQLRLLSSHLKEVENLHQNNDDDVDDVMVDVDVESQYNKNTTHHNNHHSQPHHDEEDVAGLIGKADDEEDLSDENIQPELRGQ
# Experiment: PBM E-score (8-mer binding enrichment) (E-score (-0.5 to 0.5)); higher = stronger / more preferred TF binding
# Settings: protein concentration: 200 nM; construct: GST-full length
# Method in brief: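 PURExpress in vitro transcription/translation supplied GST-tagged yeast transcription factors, either full-length or DNA-binding domain. Applied at about 100-200 nM to universal all-10-mer Agilent arrays double-stranded by primer extension, the bound protein was detected with fluorescent anti-GST. E-scores, modified Wilcoxon-Mann-Whitney statistics, were given by the Universal PBM Analysis Suite to ungapped eight-base words pooled with their reverse complements after masliner normalisation.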
row,Sequence,PBM E-score
1,AGAAACCC,-0.219
2,AGTCACCG,0.111
3,CAAGAAAA,0.0565
4,CAATGGAG,-0.101
5,TACCCGCA,0.0949
6,AGAAAGCC,-0.112
7,CGTTCTAC,0.083
8,CTCTCCTC,-0.402
9,ACCCGCGG,0.118
10,GCTTACAA,-0.0814
11,AGCCTCGA,-0.0972
12,AAAGGGAT,0.107
13,CTTAGTGA,0.305
14,AGACCATA,0.0105
15,CGAGCCGA,-0.063
16,ATGACTCC,-0.0488
17,CTCGGGCA,0.0935
18,GGTACCCA,-0.0501
19,AAGGGCCG,-0.144
20,ATTACCAA,0.0612
21,CCGCTACA,-0.124
22,AACATGCC,-0.132
23,GCAAGTCC,-0.418
24,AAGGCTAT,-0.0422
25,AGGCAGAA,-0.154

# Already shown: an excerpt of the list.
row,Sequence,PBM E-score
15,CGAGCCGA,-0.063
16,ATGACTCC,-0.0488

# Additional records follow:

row,Sequence,PBM E-score
1,CATGTGGC,0.0326
2,CCCGAAAG,-0.148
3,AGATCACA,0.138
4,ATTGCAAG,-0.0324
5,GGCGCGCC,-0.0677
6,ACTACAAT,0.112
7,CTAGCCGC,0.00077
8,CCACTTAC,-0.0948
9,AGAGATCC,-0.0902
10,AATCAAAC,0.174
11,CCCCCCGG,-0.483
12,GGTTCATA,-0.0971
13,ATAACACG,0.0352
14,ATTTCCCA,0.119
15,AGGCATCC,-0.104
16,GGAAGTTA,0.136
17,CTGTGAAG,-0.0974
18,CCTGTTAC,-0.0292
19,CGAACAGC,-0.165
20,CCCTGTGA,-0.0363
21,CGATCTAC,0.108
22,GTTGCTAA,0.106
23,AAAGGGGG,-0.335
24,TTGACAAA,0.182
25,CCAACAGG,-0.363

row,Sequence,PBM E-score
1,CTATATAC,0.364
2,ACCTGATA,0.0282
3,CCCGTTCA,-0.0185
4,ACGATCCC,0.101
5,CCAAGCGG,-0.254
6,GGTACTAA,0.0193
7,ACAATCGT,0.107
8,GTGGCTAA,0.0853
9,ACACGAGT,0.228
10,AGAGCAAG,-0.0779
11,CGGAATTA,0.00678
12,GCGGTATA,-0.0336
13,CGTCCATA,0.164
14,GGCCACCA,0.0495
15,TCTAAAGA,0.0916
16,CCTTAGCC,-0.0679
17,AATAGATC,0.164
18,CGCGAGGC,-0.0829
19,ACGGGCAC,0.0739
20,AACCTTAT,-0.184
21,ACTCCGGA,0.113
22,AACGGATA,0.178
23,CCAGTCAA,-0.175
24,ATGCGAAT,-0.0624
25,AATAATGA,0.188

row,Sequence,PBM E-score
1,GAAAATGA,0.179
2,ACCGGTAC,-0.164
3,GAATGCAA,-0.0204
4,AGACCAAG,-0.212
5,AGATAGGG,-0.144
6,CGATAAGC,0.141
7,TGGAGGAA,-0.22
8,CTACCGCC,-0.183
9,AAAAGTCC,0.0886
10,AAGAAGGT,0.0307
11,AGTCCACT,-0.079
12,CGATTCTA,-0.0979
13,CTGCCAAA,0.0867
14,AGAAGGCC,-0.0673
15,AAGAACGG,-0.00472
16,AAGTCATC,0.255
17,AGGGACTG,-0.197
18,ATACGCGG,-0.114
19,ATAGCCCG,-0.169
20,ACGATTAG,0.29
21,GTGTTTAA,0.0683
22,GCAAAAGA,0.00896
23,ATAGACCG,-0.19
24,CTGTTGCC,-0.278
25,GACTTTTA,-0.0221

# Retrieved one by one from above:
row,Sequence,PBM E-score
3,GAATGCAA,-0.0204
17,AGGGACTG,-0.197
20,ACGATTAG,0.29
15,AAGAACGG,-0.00472
13,CTGCCAAA,0.0867

# Later entries

row,Sequence,PBM E-score
1,AAGTGATT,0.347
2,ATTCCTCC,0.0441
3,CTAACGAA,0.241
4,GGGTGAAC,-0.104
5,CTGTTCGA,-0.124
6,GGTTAATA,0.0879
7,CAGCTGGG,-0.242
8,CTGCCGTC,0.198
9,GAAATCCA,0.0415
10,CTTCGCTC,-0.04
11,ATCAAACC,0.0683
12,GCATAGCC,-0.198
13,AGACTACC,-0.0764
14,AGCACACT,-0.096
15,AAGCGGTC,-0.106
16,ATCCAGTC,0.0249
17,GCGGTACA,-0.0834
18,ACGTTCAG,-0.0944
19,AACGAGTA,0.0542
20,CGTGGATA,0.252
21,ATCAGATC,-0.0505
22,CAATTGTA,-0.149
23,GATGGTAC,-0.128
24,ACAACCCC,-0.112
25,ATAGCCTA,-0.138

# 4 entries from above, with bars between the fields:
row | Sequence | PBM E-score
1 | AAGTGATT | 0.347
12 | GCATAGCC | -0.198
14 | AGCACACT | -0.096
23 | GATGGTAC | -0.128

# Next entries:

row,Sequence,PBM E-score
1,AGGCTTAT,-0.0827
2,ATAACGGA,0.155
3,GTCTTAGA,0.00671
4,CGTGCAAC,0.247
5,GCTGCTAA,-0.157
6,AATACAGG,-0.0816
7,GGGTTACC,-0.0518
8,GTTGGCTA,-0.201
9,ACGCGCCC,-0.156
10,AACAGATC,0.0561
11,CCATTATC,0.227
12,CCAGTCCG,-0.16
13,GCCCTCAC,-0.216
14,CTCCGCAC,0.0815
15,TAATCAGA,0.0286
16,CATTTCAC,0.00776
17,CATCTGCC,-0.108
18,ACATGAAT,0.0379
19,CGCTCTCC,-0.214
20,AACTGCTC,-0.177
21,CCTGGGGC,-0.246
22,ACGATGGG,-0.08
23,CTATAACA,-0.0383
24,AGATTCCC,-0.0908
25,CCCCTCCA,-0.294

row,Sequence,PBM E-score
1,AACGATGC,-0.126
2,CTCAATGC,-0.0685
3,AGTTTCAA,-0.0162
4,ATGTTGAA,0.104
5,AAACGAGT,0.206
6,CCGTGCCC,-0.126
7,AGCTCCTC,-0.177
8,TCCACGAA,0.352
9,GACATTAA,0.227
10,CCCCACGA,-0.0376
11,CATGAGGA,-0.107
12,ACGCAAAT,-0.186
13,CGTGAAAC,0.211
14,ACAATGAT,0.219
15,GTGAGGAA,0.0988
16,CGACTTGC,-0.129
17,TACAGCTA,-0.41
18,AGACAGCG,-0.0189
19,GTCGGTAA,0.218
20,TCGGGCAA,0.153
21,GTTGCGAA,0.0252
22,AGTCGGCC,-0.0371
